According to the supplement of paper PMC12819154, “High-throughput peptide-centric local stability assay extends protein–ligand identification to membrane proteins, tissues and bacteria” (Nature Structural & Molecular Biology, 2025):
The list shows a part of the results. Most entries show no effect beyond the scatter of the controls.

Chains of the proteins cited; added tags and fusions are not shown. Lines headed by an entry give the natural chain unless they say otherwise; changes in a name come on top.
UniProt P13224: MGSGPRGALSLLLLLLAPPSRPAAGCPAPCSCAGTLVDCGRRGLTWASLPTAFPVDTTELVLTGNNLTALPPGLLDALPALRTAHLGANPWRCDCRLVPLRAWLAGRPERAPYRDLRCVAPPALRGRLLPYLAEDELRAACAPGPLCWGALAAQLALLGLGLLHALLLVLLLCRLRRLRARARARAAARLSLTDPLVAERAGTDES
UniProt P09132: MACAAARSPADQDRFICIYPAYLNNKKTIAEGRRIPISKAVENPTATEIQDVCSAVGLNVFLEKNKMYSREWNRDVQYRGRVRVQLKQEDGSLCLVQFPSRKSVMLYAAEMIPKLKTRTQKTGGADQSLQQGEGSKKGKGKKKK
UniProt P08048: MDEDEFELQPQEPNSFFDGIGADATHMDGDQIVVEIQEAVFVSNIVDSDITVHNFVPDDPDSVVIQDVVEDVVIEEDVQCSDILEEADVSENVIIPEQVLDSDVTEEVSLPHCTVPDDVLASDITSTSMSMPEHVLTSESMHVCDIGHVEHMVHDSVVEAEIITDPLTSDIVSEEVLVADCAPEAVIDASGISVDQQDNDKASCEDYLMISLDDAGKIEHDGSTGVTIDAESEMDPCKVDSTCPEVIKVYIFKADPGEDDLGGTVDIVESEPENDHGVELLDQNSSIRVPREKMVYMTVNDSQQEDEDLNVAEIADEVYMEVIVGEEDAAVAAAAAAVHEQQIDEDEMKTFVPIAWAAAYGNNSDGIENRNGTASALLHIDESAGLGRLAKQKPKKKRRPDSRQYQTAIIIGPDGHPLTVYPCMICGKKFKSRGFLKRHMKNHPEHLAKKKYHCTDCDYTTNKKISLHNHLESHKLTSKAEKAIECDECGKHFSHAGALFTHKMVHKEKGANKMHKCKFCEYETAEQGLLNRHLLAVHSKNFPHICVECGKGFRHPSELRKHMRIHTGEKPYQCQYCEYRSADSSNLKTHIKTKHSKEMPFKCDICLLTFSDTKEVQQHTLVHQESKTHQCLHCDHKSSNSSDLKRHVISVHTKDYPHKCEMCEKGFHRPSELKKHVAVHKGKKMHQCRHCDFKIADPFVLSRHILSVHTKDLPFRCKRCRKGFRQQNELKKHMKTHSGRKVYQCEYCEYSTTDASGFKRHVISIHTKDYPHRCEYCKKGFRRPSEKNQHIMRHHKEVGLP
UniProt P10599: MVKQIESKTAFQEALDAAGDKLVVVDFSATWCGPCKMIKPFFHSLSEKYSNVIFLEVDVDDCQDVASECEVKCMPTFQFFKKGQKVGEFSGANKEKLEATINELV
UniProt P12277: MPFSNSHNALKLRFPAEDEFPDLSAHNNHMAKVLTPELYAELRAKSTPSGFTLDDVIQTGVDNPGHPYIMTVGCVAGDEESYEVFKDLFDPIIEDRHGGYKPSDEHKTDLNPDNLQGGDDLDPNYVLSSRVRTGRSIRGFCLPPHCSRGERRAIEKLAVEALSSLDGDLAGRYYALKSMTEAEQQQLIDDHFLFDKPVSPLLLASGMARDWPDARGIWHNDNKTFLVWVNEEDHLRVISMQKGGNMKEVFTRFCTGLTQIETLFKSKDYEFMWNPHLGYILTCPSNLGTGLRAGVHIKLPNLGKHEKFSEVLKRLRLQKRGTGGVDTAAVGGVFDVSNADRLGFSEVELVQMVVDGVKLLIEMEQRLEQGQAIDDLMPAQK
UniProt P09630: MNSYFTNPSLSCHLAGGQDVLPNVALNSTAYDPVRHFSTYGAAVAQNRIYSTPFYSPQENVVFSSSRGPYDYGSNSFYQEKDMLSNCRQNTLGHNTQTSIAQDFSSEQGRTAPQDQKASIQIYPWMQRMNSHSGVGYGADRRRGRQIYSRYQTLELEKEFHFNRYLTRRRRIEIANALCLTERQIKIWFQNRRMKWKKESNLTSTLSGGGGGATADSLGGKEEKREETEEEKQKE
UniProt P12318: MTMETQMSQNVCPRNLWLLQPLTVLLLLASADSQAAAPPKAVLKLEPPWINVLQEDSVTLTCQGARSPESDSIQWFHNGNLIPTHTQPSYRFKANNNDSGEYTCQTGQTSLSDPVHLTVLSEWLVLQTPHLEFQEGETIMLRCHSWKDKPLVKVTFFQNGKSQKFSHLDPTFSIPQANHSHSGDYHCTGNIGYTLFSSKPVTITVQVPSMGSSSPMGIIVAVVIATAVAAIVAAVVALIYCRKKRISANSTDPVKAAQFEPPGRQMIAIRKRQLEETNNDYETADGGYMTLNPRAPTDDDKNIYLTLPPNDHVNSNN
UniProt P11586, whole entry: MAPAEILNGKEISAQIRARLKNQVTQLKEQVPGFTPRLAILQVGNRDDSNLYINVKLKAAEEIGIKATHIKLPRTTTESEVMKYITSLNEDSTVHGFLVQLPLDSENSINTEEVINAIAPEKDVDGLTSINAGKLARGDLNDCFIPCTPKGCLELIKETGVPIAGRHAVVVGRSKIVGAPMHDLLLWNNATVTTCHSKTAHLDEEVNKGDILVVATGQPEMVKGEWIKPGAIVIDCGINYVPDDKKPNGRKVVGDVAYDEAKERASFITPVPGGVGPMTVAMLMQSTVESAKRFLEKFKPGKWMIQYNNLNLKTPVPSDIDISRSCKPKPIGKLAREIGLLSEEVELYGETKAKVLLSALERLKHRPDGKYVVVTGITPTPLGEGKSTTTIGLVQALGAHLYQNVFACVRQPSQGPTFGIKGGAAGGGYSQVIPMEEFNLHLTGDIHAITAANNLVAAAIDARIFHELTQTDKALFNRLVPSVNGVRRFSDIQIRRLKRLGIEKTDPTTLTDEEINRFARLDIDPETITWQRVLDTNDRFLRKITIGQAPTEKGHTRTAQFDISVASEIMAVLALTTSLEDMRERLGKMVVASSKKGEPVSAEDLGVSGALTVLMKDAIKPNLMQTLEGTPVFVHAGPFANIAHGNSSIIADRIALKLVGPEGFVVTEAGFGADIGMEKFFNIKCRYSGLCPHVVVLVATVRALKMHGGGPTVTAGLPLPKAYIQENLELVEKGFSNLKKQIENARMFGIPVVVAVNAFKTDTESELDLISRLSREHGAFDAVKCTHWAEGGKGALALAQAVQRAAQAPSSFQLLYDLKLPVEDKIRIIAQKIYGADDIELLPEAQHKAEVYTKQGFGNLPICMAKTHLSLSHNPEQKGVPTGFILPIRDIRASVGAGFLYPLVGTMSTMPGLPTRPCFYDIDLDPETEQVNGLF
UniProt P0C875: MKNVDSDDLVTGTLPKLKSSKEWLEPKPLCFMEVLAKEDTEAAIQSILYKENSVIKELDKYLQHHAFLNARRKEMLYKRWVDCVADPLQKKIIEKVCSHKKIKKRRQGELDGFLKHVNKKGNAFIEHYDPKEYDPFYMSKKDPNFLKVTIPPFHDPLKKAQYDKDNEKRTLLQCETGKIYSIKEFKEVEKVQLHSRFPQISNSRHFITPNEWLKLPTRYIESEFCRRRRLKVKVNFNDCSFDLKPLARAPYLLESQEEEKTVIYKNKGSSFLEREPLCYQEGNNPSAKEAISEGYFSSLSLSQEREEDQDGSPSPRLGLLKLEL
UniProt P0C7T5: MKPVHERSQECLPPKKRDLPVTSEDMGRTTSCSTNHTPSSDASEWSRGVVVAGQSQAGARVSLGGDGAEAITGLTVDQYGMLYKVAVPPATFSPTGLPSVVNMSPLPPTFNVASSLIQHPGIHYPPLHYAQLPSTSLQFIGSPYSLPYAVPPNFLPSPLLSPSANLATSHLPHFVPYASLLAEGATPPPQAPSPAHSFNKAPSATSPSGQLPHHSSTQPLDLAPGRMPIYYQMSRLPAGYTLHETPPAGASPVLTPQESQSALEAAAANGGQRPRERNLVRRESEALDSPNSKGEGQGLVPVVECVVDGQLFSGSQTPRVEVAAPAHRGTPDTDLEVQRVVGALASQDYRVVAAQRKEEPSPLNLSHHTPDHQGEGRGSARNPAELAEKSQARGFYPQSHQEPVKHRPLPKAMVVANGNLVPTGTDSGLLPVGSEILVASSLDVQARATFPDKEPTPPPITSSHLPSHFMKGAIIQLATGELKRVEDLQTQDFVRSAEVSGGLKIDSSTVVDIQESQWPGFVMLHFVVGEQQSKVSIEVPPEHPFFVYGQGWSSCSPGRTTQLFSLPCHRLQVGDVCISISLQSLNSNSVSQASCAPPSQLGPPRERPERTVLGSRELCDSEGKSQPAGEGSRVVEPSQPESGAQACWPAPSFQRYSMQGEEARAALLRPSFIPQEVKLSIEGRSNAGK
UniProt P06454: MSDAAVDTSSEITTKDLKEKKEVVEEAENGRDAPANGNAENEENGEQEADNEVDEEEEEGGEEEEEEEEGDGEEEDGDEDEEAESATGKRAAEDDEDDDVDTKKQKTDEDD
UniProt P0C1Z6, whole entry: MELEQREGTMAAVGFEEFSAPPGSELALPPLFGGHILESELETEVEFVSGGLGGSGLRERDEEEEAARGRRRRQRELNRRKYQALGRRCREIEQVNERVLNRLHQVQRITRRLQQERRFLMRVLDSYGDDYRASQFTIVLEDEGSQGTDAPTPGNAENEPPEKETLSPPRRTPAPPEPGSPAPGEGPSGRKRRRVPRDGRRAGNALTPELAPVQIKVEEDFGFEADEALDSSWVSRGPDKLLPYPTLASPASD
UniProt P07195, whole entry, looked up: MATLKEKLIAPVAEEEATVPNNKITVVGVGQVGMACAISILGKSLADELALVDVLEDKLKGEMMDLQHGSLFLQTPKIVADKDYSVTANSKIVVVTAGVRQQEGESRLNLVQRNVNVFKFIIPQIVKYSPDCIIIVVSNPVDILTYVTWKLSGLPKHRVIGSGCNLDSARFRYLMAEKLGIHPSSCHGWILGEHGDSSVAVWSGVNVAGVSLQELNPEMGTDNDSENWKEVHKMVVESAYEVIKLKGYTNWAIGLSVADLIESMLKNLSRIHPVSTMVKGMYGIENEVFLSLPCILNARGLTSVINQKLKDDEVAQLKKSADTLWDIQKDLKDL
UniProt P05976, whole entry: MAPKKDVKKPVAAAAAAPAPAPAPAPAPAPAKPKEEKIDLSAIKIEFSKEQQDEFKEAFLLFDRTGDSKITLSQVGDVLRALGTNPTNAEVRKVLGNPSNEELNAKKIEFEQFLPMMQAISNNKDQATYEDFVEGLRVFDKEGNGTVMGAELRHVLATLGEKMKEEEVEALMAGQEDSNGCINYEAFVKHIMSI
UniProt P04054: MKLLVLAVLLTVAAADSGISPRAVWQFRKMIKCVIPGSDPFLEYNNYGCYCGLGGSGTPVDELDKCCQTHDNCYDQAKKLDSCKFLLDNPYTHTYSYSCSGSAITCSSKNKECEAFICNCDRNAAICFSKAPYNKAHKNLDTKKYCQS
UniProt P00558: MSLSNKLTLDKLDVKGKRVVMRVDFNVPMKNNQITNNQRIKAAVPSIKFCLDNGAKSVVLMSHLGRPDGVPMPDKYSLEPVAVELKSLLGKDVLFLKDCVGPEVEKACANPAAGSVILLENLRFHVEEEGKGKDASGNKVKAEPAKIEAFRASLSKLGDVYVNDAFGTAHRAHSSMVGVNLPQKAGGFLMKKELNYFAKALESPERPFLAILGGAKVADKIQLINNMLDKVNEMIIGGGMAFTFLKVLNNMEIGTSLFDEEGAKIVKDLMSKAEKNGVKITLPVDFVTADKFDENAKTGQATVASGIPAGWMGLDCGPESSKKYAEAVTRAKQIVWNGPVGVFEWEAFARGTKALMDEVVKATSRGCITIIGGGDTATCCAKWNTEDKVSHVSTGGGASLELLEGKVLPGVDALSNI
UniProt P0C7X2: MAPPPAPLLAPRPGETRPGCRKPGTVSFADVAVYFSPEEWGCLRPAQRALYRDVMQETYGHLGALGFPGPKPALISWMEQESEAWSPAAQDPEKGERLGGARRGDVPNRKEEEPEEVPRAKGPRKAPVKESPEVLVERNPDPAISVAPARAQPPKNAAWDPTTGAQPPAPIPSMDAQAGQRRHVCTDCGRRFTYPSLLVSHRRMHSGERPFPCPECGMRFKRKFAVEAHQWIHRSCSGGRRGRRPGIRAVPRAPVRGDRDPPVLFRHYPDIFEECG
UniProt P04733: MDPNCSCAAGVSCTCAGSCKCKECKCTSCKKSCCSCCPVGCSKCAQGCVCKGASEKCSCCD
UniProt P02792: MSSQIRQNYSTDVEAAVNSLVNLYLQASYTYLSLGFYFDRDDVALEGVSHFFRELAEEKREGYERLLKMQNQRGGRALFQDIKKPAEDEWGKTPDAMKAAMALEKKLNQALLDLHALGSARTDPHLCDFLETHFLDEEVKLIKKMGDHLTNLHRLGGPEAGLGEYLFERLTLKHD
UniProt P0DME0, whole entry: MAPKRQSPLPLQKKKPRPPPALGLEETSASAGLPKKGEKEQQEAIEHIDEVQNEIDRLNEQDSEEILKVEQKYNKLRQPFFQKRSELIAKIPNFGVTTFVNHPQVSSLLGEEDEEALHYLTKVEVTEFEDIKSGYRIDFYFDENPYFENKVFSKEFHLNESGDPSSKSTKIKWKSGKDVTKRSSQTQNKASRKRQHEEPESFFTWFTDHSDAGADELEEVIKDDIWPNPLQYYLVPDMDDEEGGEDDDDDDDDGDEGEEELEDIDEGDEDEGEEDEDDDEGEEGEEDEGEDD

Compound: CN[C@@H]1C[C@H]2O[C@@](C)([C@@H]1OC)n1c3ccccc3c3c4c(c5c6ccccc6n2c5c31)C(=O)NC4 [staurosporine]
Assay: log2 fold change of tryptic peptide abundance, ligand vs vehicle (limited proteolysis) (log2 ratio); higher = more trypsin-susceptible (destabilized)
Conditions: ligand concentration: 20 uM; sample: K562 cleared lysate; digestion: 4 min, 22 C (HT-PELSA RT4min, Orbitrap Astral)

Row | Target | log2 fold change
1 | GP1BB (peptide sequence: LSLTDPLVAER, peptide start residue: 190) (UniProt P13224) | -0.13
2 | CCNE2 (peptide sequence: ILTAAALCHFTSIEVVKK, peptide start residue: 295) (UniProt O96020) | -0.0358
3 | SRP19 (peptide sequence: TGGADQSLQQGEGSKK, peptide start residue: 122) (UniProt P09132) | -0.126
4 | UniProt P08048 (peptide sequence: HILSVHTK, peptide start residue: 708) | 0.47
5 | TXN (peptide sequence: VGEFSGANKEK, peptide start residue: 86) (UniProt P10599) | 0.542
6 | CKB (peptide sequence: VLTPELYAELR, peptide start residue: 33) (UniProt P12277) | -0.196
7 | UniProt P00451 (peptide sequence: KIQEEIEK, peptide start residue: 1212) | 0.00596
8 | UniProt P09630 (peptide sequence: YQTLELEK, peptide start residue: 195) | -0.142
9 | MRPL3 (peptide sequence: GQPATHGQTK, peptide start residue: 226) (UniProt P09001) | 0.225
10 | FCGR2A (peptide sequence: AAQFEPPGR, peptide start residue: 256) (UniProt P12318) | 0.0663
11 | GLUD1 (peptide sequence: GASIVEDKLVEDLR, peptide start residue: 77) (UniProt P00367) | 0.18
12 | MTHFD1 (peptide sequence: TTTESEVMK, peptide start residue: 75) (UniProt P11586) | -0.157
13 | UniProt P0CJ78 (peptide sequence: GFFYLSSVLR, peptide start residue: 968) | 0.453
14 | UniProt P0C875 (peptide sequence: KEMLYKR, peptide start residue: 73) | -0.391
15 | ATXN1L (peptide sequence: AALLRPSFIPQEVK, peptide start residue: 665) (UniProt P0C7T5) | -0.374
16 | PTMA (peptide sequence: AAEDDEDDDVDTKK, peptide start residue: 91) (UniProt P06454) | -0.116
17 | TFPT (peptide sequence: VLDSYGDDYR, peptide start residue: 123) (UniProt P0C1Z6) | -0.562
18 | LDHB (peptide sequence: VIGSGCNLDSAR, peptide start residue: 159) (UniProt P07195) | -0.326
19 | MYL1 (peptide sequence: HVLATLGEK, peptide start residue: 157) (UniProt P05976) | -0.0941
20 | S100A6 (peptide sequence: LMEDLDR, peptide start residue: 56) (UniProt P06703) | -0.279
21 | UniProt P04054 (peptide sequence: NAAICFSK, peptide start residue: 123) | 0.0201
22 | PGK1 (peptide sequence: NNQITNNQR, peptide start residue: 31) (UniProt P00558) | -0.232
23 | ZNF688 (peptide sequence: NPDPAISVAPAR, peptide start residue: 139) (UniProt P0C7X2) | -0.206
24 | UniProt P04733 (peptide sequence: CAQGCVCK, peptide start residue: 44) | 0.135
25 | LDHA (peptide sequence: GEMMDLQHGSLFLR, peptide start residue: 60) (UniProt P00338) | -0.372
26 | EEF2 (peptide sequence: DSVVAGFQWATK, peptide start residue: 677) (UniProt P13639) | -0.259
27 | RPSA (peptide sequence: FTPGTFTNQIQAAFR, peptide start residue: 103) (UniProt P08865) | 0.199
28 | FTL (peptide sequence: KLNQALLDLHALGSAR, peptide start residue: 106) (UniProt P02792) | 0.213
29 | UniProt P0DME0 (peptide sequence: LRQPFFQK, peptide start residue: 76) | 0.366

Rewritten as labelled records: part of the list above.
UniProt P04054 (peptide sequence: NAAICFSK, peptide start residue: 123)
  log2 fold change: 0.0201
PGK1 (peptide sequence: NNQITNNQR, peptide start residue: 31) (UniProt P00558)
  log2 fold change: -0.232
